Test results as given in US20200354321A1 (priority 2018, published 2020).
Some results were stated once for a whole list of compounds, not compound by compound.

The compounds below were run on Fusarium culmorum (assay: Activity against Fusarium culmorum in the microtiterplate test). Conditions: 31 ppm active substance; relative growth vs compound-free control (100%); absorption at 405 nm 7 days after inoculation.
Format: cell-based

Row | SMILES | growth of the pathogen
1 | Cc1cc(NC(=O)C(C)(Cc2ccccc2)CC(C)C)cnc1C (centres unmarked) [Ex-80] | at most 15%
2 | Cc1cc(NC(=O)C(c2ccccc2)C2CCCC2)cnc1C (centres unmarked) [Ex-46] | at most 15%
3 | Cc1cc(NC(=O)C(Cc2ccccc2)CC(C)C)cnc1C (centres unmarked) [Ex-13] | at most 15%
4 | Cc1cc(NC(=O)CCC2CCCC2)cnc1C [Ex-57] | at most 15%
5 | Cc1cc(NC(=O)C(CCc2ccccc2)C(C)C)cnc1C (centres unmarked) [Ex-14] | at most 15%
6 | COc1ccc(C(C(=O)Nc2cnc(Cl)c(Cl)c2)C(C)C)cc1 (centres unmarked) [Ex-74] | at most 15%
7 | CCCCC(C(=O)Nc1cnc(C)c(C)c1)c1ccccc1 (centres unmarked) [Ex-45] | at most 15%
8 | CCC(C(=O)Nc1cnc(C)c(C)c1)c1ccccc1 (centres unmarked) [Ex-4] | at most 15%
9 | Cc1cc(NC(=O)C(C)(C)C(C)(C)C)cnc1C [Ex-33] | at most 15%
10 | Cc1cc(NC(=O)C(C)c2ccccc2)cnc1C (centres unmarked) [Ex-41] | at most 15%
11 | CCC(CCc1ccccc1)C(=O)Nc1cnc(C)c(C)c1 (centres unmarked) [Ex-18] | at most 15%
12 | Cc1cc(NC(=O)C(CCc2ccccc2)CC(C)C)cnc1C (centres unmarked) [Ex-15] | at most 15%
13 | CCCC(CCC)C(=O)Nc1cnc(C)c(C)c1 [Ex-53] | at most 15%
14 | COC(C(=O)Nc1cnc(C)c(C)c1)(c1ccccc1)C(F)(F)F (centres unmarked) [Ex-63] | at most 15%
15 | CCCC(CCc1ccccc1)C(=O)Nc1cnc(C)c(C)c1 (centres unmarked) [Ex-17] | at most 15%
16 | Cc1cc(NC(=O)C(Br)C(C)C)cnc1C (centres unmarked) [Ex-44] | at most 15%
17 | Cc1cc(NC(=O)C(CCc2ccccc2)C(C)(C)C)cnc1C (centres unmarked) [Ex-16] | at most 15%
18 | Cc1cc(NC(=O)CCCc2ccccc2)cnc1C [Ex-35] | at most 15%
19 | Cc1cc(NC(=O)C(Cc2ccccc2)C2CC2)cnc1C (centres unmarked) [Ex-70] | at most 15%
20 | CCCC(C(=O)Nc1cnc(C)c(C)c1)c1ccccc1 (centres unmarked) [Ex-6] | at most 15%
21 | Cc1cc(NC(=O)C(F)(F)c2ccccc2)cnc1C [Ex-25] | at most 15%
22 | Cc1cc(NC(=O)C(CCC(C)C)C(C)C)cnc1C (centres unmarked) [Ex-56] | at most 15%
23 | Cc1cc(NC(=O)C(c2ccccc2)C(C)(C)C)cnc1C (centres unmarked) [Ex-12] | at most 15%
24 | Cc1cc(NC(=O)CC2CCCCC2)cnc1C [Ex-64] | at most 15%
25 | Cc1cc(NC(=O)C(CC(C)C)c2ccccc2)cnc1C (centres unmarked) [Ex-7] | at most 15%
26 | CCCCCC(C)C(=O)Nc1cnc(C)c(C)c1 (centres unmarked) [Ex-50] | at most 15%
27 | Cc1cc(NC(=O)C(c2ccccc2)C(C)C)cnc1C (centres unmarked) [Ex-5] | at most 15%
28 | Cc1cc(NC(=O)CCC2CCCCC2)cnc1C [Ex-43] | at most 15%

These compounds were tested on Pyricularia oryzae (assay: not given). Conditions: 31 ppm active substance; relative growth vs compound-free control (100%); absorption at 405 nm 7 days after inoculation.
Format: cell-based

Row | SMILES | growth of the pathogen
29 | Cc1cc(NC(=O)C(C)(C)C(C)C)cnc1C [Ex-32] | at most 15%
30 | Cc1cc(NC(=O)C(Cc2ccccc2)C(C)(C)C)cnc1C(F)F (centres unmarked) [Ex-42] | at most 15%
31 | Cc1cc(NC(=O)C(C)(Cc2ccccc2)CC(C)C)cnc1C (centres unmarked) [Ex-80] | at most 15%
32 | CCCCC(C)(C)C(=O)Nc1cnc(C)c(C)c1 [Ex-30] | at most 15%
33 | Cc1cc(NC(=O)C(C)(C)C(C)(C)C)cnc1C [Ex-33] | at most 15%
34 | Cc1cc(NC(=O)C(Cc2ccccc2)C(C)(C)C)cnc1C (centres unmarked) [Ex-38] | at most 15%
35 | Cc1cc(NC(=O)C(C)(Cc2ccccc2)CC(C)C)cnc1C(F)F (centres unmarked) [Ex-81] | at most 15%
36 | Cc1cc(NC(=O)Cc2ccc(Cl)c(Cl)c2)cnc1C [Ex-51] | at most 15%
37 | COC(C(=O)Nc1cnc(C)c(C)c1)(c1ccccc1)C(F)(F)F (centres unmarked) [Ex-63] | at most 15%
38 | Cc1cc(NC(=O)CCCc2ccccc2)cnc1C [Ex-35] | at most 15%
39 | Cc1cc(NC(=O)C(CCC(C)C)C(C)C)cnc1C (centres unmarked) [Ex-56] | at most 15%
40 | CCCCCC(C)C(=O)Nc1cnc(C)c(C)c1 (centres unmarked) [Ex-50] | at most 15%
41 | Cc1cc(NC(=O)C(C)(C)Cc2ccccc2)cnc1C [Ex-31] | at most 15%

Each compound was assayed on Botrytis cinerea (assay: Preventative fungicidal control of Botrytis cinerea on leaves of green pepper (green house)). Conditions: 250 ppm spray to run-off, inoculated next day, assessed after 5 days at 22 to 24 C; untreated plants 90% infected.
Format: in vivo

Row | SMILES | growth of the pathogen (fungal attack visually assessed as % diseased leaf area)
42 | Cc1cc(NC(=O)C(Cc2ccccc2)C(C)(C)C)cnc1C(F)F (centres unmarked) [Ex-42] | at most 15%
43 | Cc1cc(NC(=O)C(C)(Cc2ccccc2)CC(C)C)cnc1C (centres unmarked) [Ex-80] | at most 15%
44 | Cc1cc(NC(=O)C(C)(C)C(C)(C)C)cnc1C [Ex-33] | at most 15%
45 | Cc1cc(NC(=O)C(Cc2ccccc2)C(C)(C)C)cnc1C (centres unmarked) [Ex-38] | at most 15%
46 | Cc1cc(NC(=O)C(C)(C)C2CC2)cnc1C [Ex-36] | at most 15%

These compounds were tested on Botrytis cinerea (assay: Activity against the grey mold Botrytis cinerea in the microtiterplate test). Conditions: 31 ppm active substance; relative growth vs compound-free control (100%); absorption at 405 nm 7 days after inoculation.
Format: cell-based

Row | SMILES | growth of the pathogen
47 | Cc1cc(NC(=O)C(Cc2ccccc2)C(C)(C)C)cnc1C(F)F (centres unmarked) [Ex-42] | at most 11%
48 | Cc1cc(NC(=O)C(C)(Cc2ccccc2)CC(C)C)cnc1C (centres unmarked) [Ex-80] | at most 11%
49 | Cc1cc(NC(=O)C(CCc2ccccc2)C(C)C)cnc1C (centres unmarked) [Ex-14] | at most 11%
50 | COc1ccc(C(C(=O)Nc2cnc(Cl)c(Cl)c2)C(C)C)cc1 (centres unmarked) [Ex-74] | at most 11%
51 | Cc1cc(NC(=O)C(C)(C)C(C)(C)C)cnc1C [Ex-33] | at most 11%
52 | Cc1cc(NC(=O)C(Cc2ccccc2)C(C)(C)C)cnc1C (centres unmarked) [Ex-38] | at most 11%
53 | COC(C(=O)Nc1cnc(C)c(C)c1)(c1ccccc1)C(F)(F)F (centres unmarked) [Ex-63] | at most 11%
54 | Cc1cc(NC(=O)C(CCc2ccccc2)C(C)(C)C)cnc1C (centres unmarked) [Ex-16] | at most 11%
55 | COc1ccc(C(C(=O)Nc2cnc(C(F)F)c(C)c2)C(C)C)cc1 (centres unmarked) [Ex-76] | at most 11%
56 | COc1ccc(C(C(=O)Nc2cnc(C(F)(F)F)c(C)c2)C(C)C)cc1 (centres unmarked) [Ex-77] | at most 11%
57 | Cc1cc(NC(=O)C(Cc2ccccc2)C2CC2)cnc1C (centres unmarked) [Ex-70] | at most 11%
58 | Cc1cc(NC(=O)C(CCC(C)C)C(C)C)cnc1C (centres unmarked) [Ex-56] | at most 11%
59 | Cc1cc(NC(=O)C(c2ccccc2)C(C)(C)C)cnc1C (centres unmarked) [Ex-12] | at most 11%
